At least one structure is not confirmed: it was looked up by name or label, or the drawing left a doubt.
Molecular target: gelatinase B from neutrophils (Homo sapiens, UniProt P14780)
Test: gelatinase (inhibitor) microtiter plate assay with biotinylated gelatin
Type: biochemical
Parameters: endogenous in cells; host or cells: human neutrophils stimulated with lipopolysaccharide; conditioned medium
Conditions: for gelatinase B inhibitory activity in the plate assay (in words): qualitative statements
Description: The measurement of gelatinase activity was based on the detection of non-degraded biotinylated gelatin with a streptavidin-peroxidase conjugate. This test is based on the biotin-avidin method described by Sorbi et al. (25) but modified to a one plate assay (schematically represented in Fig. 1.). Gelatin (1mg/ml) was dissolved in 0.1 M sodium bicarbonate pH 8.3 by heating to 40°C. Biotin-N-hydroxysuccinimide ester was dissolved in dimethylsulfoxide (Me2SO) and was added to the gelatin in a 15-fold molar excess. The mixture was allowed to react overnight at 4°C and the biotinylated gelatin was then dialyzed against phosphate buffered saline (PBS). Neutrophil granulocyte (Neu) medium was collected from human neutrophils after stimulation with lipopolysaccharide (1µg/ml) overnight at 37°C in Minimal Essential Medium. Cells were removed by 10 min centrifugation at 1000 g. Purified gelatinase was obtained by one-step affinity chromatography of neutrophil medium on a gelatin-sepharose column as described (8).
Modified flat bottom 96-well ELISA plates were coated overnight with 0.5 µg/ml avidin in distilled water. The plates were then blocked with 0.3% bovine serum albumin (BSA, Sigma) in PBS for 1 hour at 37°C. Biotinylated gelatin was diluted to 50 µg/ml and 100µl was added to the avidin-coated wells. After incubation for one hour at 20°C, the plate was rinsed with PBS. Medium containing the secreted gelatinases from human neutrophils (dilution range 1/3-1/3^11) and the inhibitors were diluted in incubation buffer (50 mM Tris-HCl pH 7.5, 10 mM CaCl2, 0.02% (W/V) NaN3, 1% (V/V) Triton X-100) and 100 µl of each were mixed. […] After rinsing the plate, the ABTS substrate was added (0.5 mg/ml solution containing 0.1 M citric acid, 0.2 M Na2HPO4, pH 4.3, 0.07 µl/ml 30% H2O2) and the optical density was read at 405 nm after 10 min. incubation at room temperature. […]
Gelatin is biotinylated and bound to avidin-coated microtiter plates. […] Bound streptavidin-peroxidase activity is measured spectrophotometrically by reaction of peroxide with ABTS. […]

Amino acid sequences for entries named in this document (tags omitted). Residues count along the entry.
UniProt P14780, 94-707: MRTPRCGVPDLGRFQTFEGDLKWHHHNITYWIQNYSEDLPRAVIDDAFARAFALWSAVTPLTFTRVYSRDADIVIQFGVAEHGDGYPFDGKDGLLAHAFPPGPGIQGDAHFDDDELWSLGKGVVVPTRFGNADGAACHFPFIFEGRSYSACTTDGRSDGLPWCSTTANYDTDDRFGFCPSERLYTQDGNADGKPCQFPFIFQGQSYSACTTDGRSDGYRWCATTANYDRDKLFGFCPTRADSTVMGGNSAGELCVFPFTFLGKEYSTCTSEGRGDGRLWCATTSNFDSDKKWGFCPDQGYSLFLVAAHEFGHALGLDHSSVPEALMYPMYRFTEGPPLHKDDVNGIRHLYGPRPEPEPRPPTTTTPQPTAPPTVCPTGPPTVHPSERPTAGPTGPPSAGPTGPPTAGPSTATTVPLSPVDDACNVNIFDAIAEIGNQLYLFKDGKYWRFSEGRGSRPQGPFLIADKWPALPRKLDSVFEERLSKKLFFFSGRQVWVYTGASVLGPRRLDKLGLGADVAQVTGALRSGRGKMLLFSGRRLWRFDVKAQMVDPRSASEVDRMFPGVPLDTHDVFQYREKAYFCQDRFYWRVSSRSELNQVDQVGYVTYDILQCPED

Structure (SMILES)	gelatinase B inhibitory activity in the plate assay (in words)	Inhibition factor (IF) (tetracycline concentration 3.33 mg/ml)
C[C@H]1c2cccc(O)c2C(=O)C2=C(O)[C@]3(O)C(=O)C(C(N)=O)=C(O)[C@@H](N(C)C)[C@@H]3[C@@H](O)[C@@H]21 [doxycycline hyclate]	not active as an inhibitor	–
CN(C)[C@@H]1C(O)=C(C(N)=O)C(=O)[C@@]2(O)C(O)=C3C(=O)c4c(O)cccc4[C@@](C)(O)[C@H]3[C@H](O)[C@@H]12 [oxytetracycline base]	less active as an matrix metalloprotease inhibitor than its 4-epimer	precipitation
